Assay results as given in article PMC8113555.
Construct, isoform or probe ends are uncertain for at least one entry. For some of these results: The comparison behind a weaker result is the experiment's own reference, which may not be listed here. For some of these results: At least one result comes from cells or an extract, where the contact may be indirect. For some of these results: A negative result means that nothing was seen under these conditions. For some of these results: At least one verdict rests on a figure or table, not on a statement of the authors.

Sequences of proteins named here, by UniProt entry; tags and fusion partners are left off.
UniProt Q22429, entry or part of it: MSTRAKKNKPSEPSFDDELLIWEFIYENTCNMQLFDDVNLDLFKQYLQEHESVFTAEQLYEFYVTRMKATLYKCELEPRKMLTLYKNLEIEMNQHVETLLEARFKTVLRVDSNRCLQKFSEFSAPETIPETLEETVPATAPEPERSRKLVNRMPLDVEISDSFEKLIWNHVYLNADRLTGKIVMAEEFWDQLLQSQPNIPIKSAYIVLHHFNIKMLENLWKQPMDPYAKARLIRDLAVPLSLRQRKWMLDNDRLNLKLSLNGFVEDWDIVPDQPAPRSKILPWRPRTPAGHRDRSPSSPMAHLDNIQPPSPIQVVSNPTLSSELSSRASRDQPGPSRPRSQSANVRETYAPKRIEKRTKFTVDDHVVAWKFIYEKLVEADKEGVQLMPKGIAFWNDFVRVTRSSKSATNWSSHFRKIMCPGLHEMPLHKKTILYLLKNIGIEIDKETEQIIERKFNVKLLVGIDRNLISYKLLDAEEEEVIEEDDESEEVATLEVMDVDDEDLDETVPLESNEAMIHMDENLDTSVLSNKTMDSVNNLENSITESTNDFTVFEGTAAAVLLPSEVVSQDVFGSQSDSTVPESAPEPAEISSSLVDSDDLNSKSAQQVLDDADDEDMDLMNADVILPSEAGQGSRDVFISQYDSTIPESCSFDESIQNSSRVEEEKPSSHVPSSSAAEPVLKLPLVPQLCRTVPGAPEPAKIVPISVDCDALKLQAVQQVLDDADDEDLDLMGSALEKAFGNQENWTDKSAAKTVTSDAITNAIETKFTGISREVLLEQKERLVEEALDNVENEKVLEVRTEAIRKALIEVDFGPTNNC

Experiments:
[1] = biological target: TEBP-2-His5 (Caenorhabditis elegans) (UniProt Q22429); experiment: fluorescence polarization; settings: FP: 20 mM HEPES pH 7.0, 100 mM NaCl, 5% glycerol, 20 nM probe, 10 min at RT; recombinant protein; protein details: His5 (C-terminal by primers); label: FITC on strand 1 (5')
[2] = biological target: TEBP-1-His5 (Caenorhabditis elegans) (UniProt O62329); experiment: fluorescence polarization; settings: FP: 20 mM HEPES pH 7.0, 100 mM NaCl, 5% glycerol, 20 nM probe, 10 min at RT; recombinant protein; protein details: His5 (C-terminal by primers); label: FITC on strand 1 (5')
[3] = biological target: TEBP-1::3xFLAG (Caenorhabditis elegans) (UniProt O62329); experiment: pull-down; settings: pull-down: 50 mM Tris/HCl pH 7.5, 150 mM NaCl, 0.5% NP-40, 5 mM MgCl2, 1 mM DTT, salmon sperm DNA, 90 min at 4 C, protein in an extract, protein details: C-terminal 3xFLAG
[4] = biological target: TEBP-2::GFP (Caenorhabditis elegans) (UniProt Q22429); experiment: pull-down; settings: pull-down: 50 mM Tris/HCl pH 7.5, 150 mM NaCl, 0.5% NP-40, 5 mM MgCl2, 1 mM DTT, salmon sperm DNA, 90 min at 4 C, protein in an extract, protein details: C-terminal GFP
[5] = label: biotin 5', single-stranded DNA

| Sequence | binding result [1] | binding result [2] | binding result [3, 5] | binding result [4, 5] | also measured |
| --- | --- | --- | --- | --- | --- |
| CTGGGCTTAGGCACAAGGT (double strand) [1.5x G-rich ds] | binds more weakly | binds more weakly |  |  |  |
| CTGTTAGGCTTAGGCGACT (double strand) [2.0x TTAGGC ds] | binds more weakly | binds more weakly |  |  |  |
| CTGTTAGGCTTATCAAGGT (double strand) [1.5x T-rich ds] | binds more weakly | binds more weakly |  |  |  |
| GCAGTTCGTAATCCAGGGCTGCCTAAGCCTAAGCCTAAGCCTAAGCCTAACCCATCGTTCGAGTCACGAA [5x GCCTAA ss (C-rich)] |  |  | no binding | no binding |  |
| TTCGTGACTCGAACGATGGGAGGTCAAGGTCAAGGTCAAGGTCAAGGTCAAGCCCTGGATTACGAACTGC (double strand) [5x AGGTCA control ds] |  |  |  |  | binding result ([3]; label: biotin 5' on strand 1): no binding; binding result ([4]; label: biotin 5' on strand 1): no binding |
| TTCGTGACTCGAACGATGGGAGGTCAAGGTCAAGGTCAAGGTCAAGGTCAAGCCCTGGATTACGAACTGC [5x AGGTCA control ss] |  |  | no binding | no binding |  |
| TTCGTGACTCGAACGATGGGTTAGGCTTAGGCTTAGGCTTAGGCTTAGGCAGCCCTGGATTACGAACTGC (double strand) [5x TTAGGC ds] |  |  |  |  | binding result ([3]; label: biotin 5' on strand 1): binds; binding result ([4]; label: biotin 5' on strand 1): binds |
| TTCGTGACTCGAACGATGGGTTAGGCTTAGGCTTAGGCTTAGGCTTAGGCAGCCCTGGATTACGAACTGC [5x TTAGGC ss (G-rich)] |  |  | no binding | no binding |  |
